Source: patent US20260216142A1, “USES OF ZLN-005 AND RELATED COMPOUNDS” (priority 2022, published 2026)
“Also recorded” adds a separate entry of the source. For at least one compound, name, drawing or mass did not settle the structure.

Tests used:
intraperitoneal cells = assay: Respiratory function (OCR) and glycolysis (ECAR) by extracellular flux analysis; format: in vivo, mice
peritoneal cavity cells [1] = assay: qRT-PCR mRNA expression in peritoneal cavity cells at 24 hours post-CLP; format: in vivo, mice
TFEB = assay: Regulation of TFEB in THP-1 (PGC1α knockdown, nuclear migration); format: cell-based, human
THP-1 cells [2] = assay: Lysosomal acidification in THP-1 cells with PI3K inhibition by Wortmannin; format: cell-based, human
THP-1 cells [3] = assay: Lysosomal acidification (pHrod fluorescence) in THP-1 cells with TRPML1 inhibition; format: cell-based, human; details: ZLN-005 and LPS treated cells relative to LPS-only cells
peritoneal bacteria = assay: Peritoneal bacterial quantification in CLP mice; format: in vivo
THP-1 cells [4] = assay: Phagocytic activity of THP-1 derived macrophages (Phagocytosis Assay Kit IgG FITC); format: cell-based, human; details: 1 μM, LPS-stimulated (1 μg/mL) macrophages, latex beads 20 minutes
THP-1 cells [5] = assay: Lysosomal acidity of THP-1 derived macrophages (pH sensitive dye); format: cell-based, human; details: 1 μM, LPS stimulated (1 μg/mL) cells
CLP sepsis model = assay: Histology and inflammatory scores of organs at 24 hours post-CLP; format: in vivo, mice
v-ATPase = v-ATPase V0/V1 assembly in peritoneal cells of CLP mice (western blot after fractionation); format: in vivo; details: 12 mg/kg i.p. at CLP; 24 hours
THP-1 cells [6] = assay: THP-1 inflammation model (LPS): mitochondrial function, morphology and lysosome contact; format: cell-based, human
peritoneal cavity cells [7] = assay: Phagocytosis and lysosomal function of peritoneal cavity cells from CLP mice; format: in vivo
[8] = system: proinflammatory cytokines; assay: mRNA expression of proinflammatory cytokines in organs at 24 hours post-CLP; format: in vivo, mice
[9] = system: PI3K/AKT axis, mTORC1 (S6), AMPK; assay: Western blotting of molecular pathways in peritoneal cavity cells at 24 hours post-CLP; format: in vivo, mice
THP-1 cells [10] = assay: Autophagy flux (LC3 conversion, Western blotting) in LPS model of THP-1; format: cell-based, human; details: 6 hours LPS followed by 2 or 6 hours autophagy inhibitor (50 nM bafilomycin A1 or 30 nM chloroquine)
Protocol: Cells were incubated at 37° C. in a humidified 5% CO2 incubator. […] After 48 hours, the supernatant of the medium was carefully removed to avoid detaching the cells attached to the bottom of the plate and replaced with new medium containing 1 μM ZLN-005 or DMSO (0.1%) as a control. […] For PI3K inhibition, the cells were seeded in the plate and added 200 nM Wortmannin (AG-CN2-0023-M001, Adipogen Life Sciences Inc.).
Protein levels were quantified using ImageJ™.

[11] = first postoperative day after CLP
[12] = THP-1, LPS + ZLN-005 with PGC1α KD
[13] = 1 μM, LPS stimulation, 24 hours
[14] = 12 mg/kg i.p. at CLP, cells collected 24 hours later, vs vehicle

SMILES: CC(C)(C)c1ccc(-c2nc3ccccc3[nH]2)cc1 [ZLN-005, 2-(4-tert-butylphenyl)-1H-benzimidazole]
- glycolytic capacity (ECAR) (intraperitoneal cells; [11]): significantly increased
- glycolytic reserves (ECAR) (intraperitoneal cells; [11]): significantly increased
- coupling efficiency (OCR) (intraperitoneal cells; postoperative day 1 after CLP): significant increase in coupling efficiency
- proton leak (OCR) (intraperitoneal cells; postoperative day 1 after CLP): decreased proton leak
- spare respiration capacity (OCR) (intraperitoneal cells; postoperative day 1 after CLP): significantly increased
- Becni1 mRNA (peritoneal cavity cells [1]): only slightly elevated
- Gabarap mRNA (peritoneal cavity cells [1]): only slightly elevated
- Pgc1α mRNA expression in intraperitoneal cells (peritoneal cavity cells [1]): significantly elevated
- Rab7 mRNA (peritoneal cavity cells [1]): not changed
- Sqstm/p62 mRNA (peritoneal cavity cells [1]): significant increase
- Tfam mRNA expression in intraperitoneal cells (peritoneal cavity cells [1]): significantly elevated
- Tfeb mRNA expression in intraperitoneal cells (peritoneal cavity cells [1]; vs CLP alone): significantly increased
- Atp6v0d1 mRNA (peritoneal cavity cells [1]; vs CLP group): significantly elevated
- Atp6v1A mRNA (peritoneal cavity cells [1]; vs CLP group): significantly elevated
- Ctsd mRNA (peritoneal cavity cells [1]; vs CLP group): significantly elevated
- Mcoln1 mRNA (peritoneal cavity cells [1]; vs CLP group): significantly elevated
- TFEB nuclear migration (fluorescent immunostaining) (TFEB; LPS exposure): further enhanced
- Tfeb mRNA levels (TFEB; [12]): rate of increase was greatly reduced
- lysosomal acidification (TFEB; [12]): significantly elevated
- Tfeb mRNA levels (TFEB; THP-1, ZLN-005 added to LPS stimulation): markedly increased
- TFEB nuclear migration (fluorescent immunostaining) (TFEB; absence of LPS exposure): nuclear migration proceeds
- TFEB nuclear migration (Western Blotting of nuclear and cytoplasmic fractions) (TFEB; presence of LPS exposure): quite pronounced
- acidification of lysosomes (THP-1 cells [2]; absence of Wortmannin): did cause acidification
- acidification of lysosomes (THP-1 cells [2]; presence of Wortmannin (200 nM)): did not cause acidification
- pHrod fluorescence (lysosomal pH indicator) (THP-1 cells [3]): higher
- bacteria count in ascites (peritoneal bacteria; 12 mg/kg i.p. at CLP, 2 and 24 hours, vs vehicle-treated CLP mice): reduction in the bacterial increase
- bacterial killing ability (peritoneal bacteria levels) (peritoneal bacteria; 12 mg/kg i.p. at CLP, 24 hours, vs vehicle): increased
- number of bacterial colonies in ascites (peritoneal bacteria; 2 hours after CLP): decreased by more than half
- number of bacterial colonies in ascites (peritoneal bacteria; 24 hours after CLP): further decreased by about one-fourth
- phagocytic activity (THP-1 cells [4]): increased phagocytic activity
- lysosomal acidity (THP-1 cells [5]): enhance lysosomal acidity
- histological score of the liver (quantification) (CLP sepsis model): failed to reveal statistically significant changes
- liver histological findings (CLP sepsis model): slightly improved findings
- lung pathology (CLP sepsis model): cellular infiltration clearly suppressed
- spleen follicular structure (CLP sepsis model): follicular structure was well preserved
- V0/V1 assembly (lysosome-associated V1 normalized by cytosolic V1) (v-ATPase): diminished this decrease
- V1A protein relative to VAPB (V1 associated with lysosomes) (v-ATPase): decrease was reversed
- cytoplasmic V1A protein normalized by cytoplasmic tubulin (v-ATPase): did not significantly differ
- membrane bound V0 proteins (v-ATPase): no significant difference
- mitochondrial mass (MitoGreen) (THP-1 cells [6]; 1 μM, LPS model): no significant changes
- mitochondrial ROS (THP-1 cells [6]; [13]): the increase was reversed
- mitochondrial membrane potential corrected by mass (mtMP/mtMass) (THP-1 cells [6]; [13]): further increased
- mtDNA copy number (THP-1 cells [6]; [13]): significantly restored
- Pgc1a mRNA (THP-1 cells [6]; 1 μM, with or without LPS stimulation, 24 hours): significantly elevated
- Tfam mRNA (THP-1 cells [6]; 1 μM, with or without LPS, 24 hours): no significant change
- mitochondrial footprint (THP-1 cells [6]; LPS-stimulated state): no change
- mitochondria-lysosome co-staining area (contact site) (THP-1 cells [6]; throughout 24 hours following LPS exposure): clear increase in co-staining area
- mitophagy (MitoKeima Red) (THP-1 cells [6]; under LPS stimulation, as early as 2 hours after administration): slight induction of mitophagy
- mitochondrial footprint (THP-1 cells [6]; unstimulated state): slightly increased
- Slub pixel and Junction pixel (branching status) (THP-1 cells [6]; with or without LPS): no change
- lysosomal pH of peritoneal phagocytic cells (peritoneal cavity cells [7]; [14]): increased
- phagocytic activity of peritoneal cells (peritoneal cavity cells [7]; [14]): increased phagocytic activity; also recorded: further elevation, although no significant difference was recognized
- intracellular ROS (CellRox) (peritoneal cavity cells [7]; 24 hours post-CLP): not significantly elevated
- lysosomal proteolysis (DQ-BSA, quantification by FACS) (peritoneal cavity cells [7]; 24 hours post-CLP): promoted proteolysis with significant differences
- lysosomal mass (LysoTracker staining) (peritoneal cavity cells [7]; 24 hours post-CLP, vs CLP alone): further enhanced
- lysosomal acidity (pHrod fluorescence intensity) of intraperitoneal cells (peritoneal cavity cells [7]; 24 hours post-CLP, vs CLP group): further significantly enhanced
- Infy mRNA expression ([8]; heart and lung): inhibitory effect of ZLN-005 was significant
- 116 mRNA expression ([8]; kidney): significantly downregulated
- II1β mRNA expression ([8]; organs): significantly downregulated
- Tnf-α mRNA expression ([8]; organs): significantly downregulated
- AKT phosphorylation [9]: markedly phosphorylated and activated
- PI3K phosphorylation [9]: markedly phosphorylated and activated
- activation of S6 downstream of mTORC1 [9]: no activation
- activity of AMPK [9]: hardly changed
- LC3-II and LC3-II/I ratios (THP-1 cells [10]): Neither LC3-II nor LC3-II/I ratios were increased

SMILES: COC[C@H]1OC(=O)c2coc3c2[C@@]1(C)C1=C(C3=O)[C@@H]2CCC(=O)[C@@]2(C)C[C@H]1OC(C)=O [wortmannin, reference compound]
- effect on lysosomal acidification by ZLN-005 (THP-1 cells [2]; THP-1 cells treated with ZLN-005): inhibited
